From PubChem BioAssay AID248 (DTP/NCI, 2004)
The list is a part of this screen's results and no random one: it is rich in T/C values a quarter to a half above the control, in often repeated tests (any T/C) and in doses without a T/C. Further doses and runs are listed elsewhere. T/C gives the treated animals as a percentage of the vehicle group. Some doses have a count of surviving animals in place of a T/C: the source files T/C as zero there, which appears to mark a toxic dose or a test without result, not a measured value. Some doses without a T/C left all or most animals alive at the check, yet need not have been tolerated: survival well below the control is almost never listed, so the zero probably covers shortened survival too. Survivors were counted at the toxicity check, usually on the fifth day, unless a day is given; later deaths do not show. Schedules are NCI's codes, read here as Q, the interval in days (D) or hours (H), X, the number of doses. Some schedule codes hold Z or #, which are not explained here. Some entries were tested several times; the results are listed from low to high. Where survival is the endpoint, the PubChem record calls one and a half times the control and up active, and a quarter to a half above the control has no call in these data; cut-offs in other NCI protocols can differ. Some T/C values are followed by the survivors on the day toxicity was checked, most often the fifth; without a count, all were alive then.

Tested on: L1210 leukemia ip in BDF1 mice, survival T/C
Assay: NCI In Vivo Anticancer Drug Screen. Data for tumor model L1210 Leukemia (intraperitoneal) in B6D2F1 (BDF1) mice
Settings: T/C endpoint: mean survival time, higher T/C = longer survival
[1] = dose: 200.0 mg/kg/injection, schedule: Q04DX003 (ip), vehicle: saline with Tween-80
[2] = dose: 400.0 mg/kg/injection, schedule: Q04DX003 (ip), vehicle: saline with Tween-80
[3] = dose: 200.0 mg/kg/injection, schedule: Q01DX009 (ip), vehicle: Klucel (hydroxypropylcellulose) (HPC)
[4] = dose: 400.0 mg/kg/injection, schedule: Q04DX003 (ip), vehicle: Klucel (hydroxypropylcellulose) (HPC)
[5] = dose: 200.0 mg/kg/injection, schedule: Q01DX001 (ip), vehicle: saline with Tween-80
[6] = dose: 100.0 mg/kg/injection, schedule: Q01DX009 (ip), vehicle: Klucel (hydroxypropylcellulose) (HPC)
[7] = dose: 400.0 mg/kg/injection, schedule: Q01DX009 (ip), vehicle: Klucel (hydroxypropylcellulose) (HPC)

Q: What does the source list for `COc1ccc2nc3c4ccccc4scc-3c2c1`?
A: survivor count [1]: 6 of 6; survivor count [2]: 5 of 6

Q: How did the survivor count [3] turn out when `c1cc2cc3c(cc2cc1CC1NCCc2cc4c(cc21)OCO4)OCO3` (stereo unspecified) was run?
A: 2 of 6

Q: And the survivor count [4]?
A: 6 of 6

Q: How did the survivor count (dose: 100.0 mg/kg/injection, schedule: Q01DX009 (ip), vehicle: saline with Tween-80) turn out when `CC(=O)n1c(O)c(N=NC(=N)N[N+](=O)[O-])c2ccccc21` was run?
A: 5 of 6

Q: What about the T/C [5] of the same compound?
A: 140 % of control [5 of 6 alive]

Q: What about the T/C (dose: 200.0 mg/kg/injection, schedule: Q01DX009 (ip), vehicle: saline with Tween-80) of the same compound?
A: 126 % of control [5 of 6 alive]

Q: And the survivor count (dose: 400.0 mg/kg/injection, schedule: Q01DX009 (ip), vehicle: saline with Tween-80)?
A: 2 of 6

Q: What does the source list for `ClCCN(CCCl)CCn1cnc2c(SCc3ccccc3)ncnc21`?
A: survivor count (dose: 45.0 mg/kg/injection, schedule: Q01DX Z (ip), vehicle: carboxymethylcellulose (CMC)): 0 of 6; survivor count (dose: 67.0 mg/kg/injection, schedule: Q01DX Z (ip), vehicle: carboxymethylcellulose (CMC)): 0 of 6 and 3 of 6; survivor count (dose: 100.0 mg/kg/injection, schedule: Q01DX Z (ip), vehicle: carboxymethylcellulose (CMC)): 0 of 6; survivor count (dose: 150.0 mg/kg/injection, schedule: Q01DX Z (ip), vehicle: carboxymethylcellulose (CMC)): 0 of 6

Q: With `CCOC(=O)c1ccc(NC(=O)Oc2ccc(-c3ccccc3)cc2)cc1` as the compound, how does the survivor count (dose: 100.0 mg/kg/injection, schedule: Q04DX003 (ip), vehicle: saline with Tween-80) read?
A: 6 of 6

Q: And the survivor count [1]?
A: 6 of 6

Q: What about the survivor count (dose: 400.0 mg/kg/injection, schedule: Q04DX002 (ip), vehicle: saline with Tween-80) of the same compound?
A: 3 of 3

Q: What about the survivor count [2] of the same compound?
A: 6 of 6

Q: How did the survivor count [6] turn out when `O=[N+]([O-])c1ccc(C2SCSCS2)cc1` was run?
A: 6 of 6

Q: With `COc1ccc2nc3cc(Cl)ccc3c(N)c2c1` as the compound, how does the survivor count (dose: 20.0 mg/kg/injection, schedule: Q01DX009 (ip), vehicle: Klucel (hydroxypropylcellulose) (HPC)) read?
A: 4 of 6

Q: What about the survivor count (dose: 40.0 mg/kg/injection, schedule: Q01DX009 (ip), vehicle: Klucel (hydroxypropylcellulose) (HPC)) of the same compound?
A: 0 of 6

Q: What about the survivor count (dose: 80.0 mg/kg/injection, schedule: Q01DX009 (ip), vehicle: Klucel (hydroxypropylcellulose) (HPC)) of the same compound?
A: 5 of 6

Q: What about the survivor count [6] of the same compound?
A: 0 of 6

Q: And the survivor count [3]?
A: 0 of 6

Q: And the survivor count [7]?
A: 0 of 6

Q: How did the survivor count (dose: 200.0 mg/kg/injection, schedule: Q01DX001 (ip), vehicle: carboxymethylcellulose (CMC)) turn out when `CCOC(=O)n1cnc2ncnc(SC)c21` was run?
A: 2 of 4

Q: With `Nc1nc(N)nc(CCN2CCCCC2)n1` as the compound, how does the survivor count (dose: 100.0 mg/kg/injection, schedule: Q01DX001 (ip), vehicle: saline with Tween-80) read?
A: 0 of 3

Q: What about the survivor count [5] of the same compound?
A: 0 of 3

Q: And the survivor count (dose: 400.0 mg/kg/injection, schedule: Q01DX001 (ip), vehicle: saline with Tween-80)?
A: 0 of 3

Q: `CC1SC(=S)N(c2ccc(Cl)cc2)C1=O` (stereo unspecified) was tested. Which survivor count [7] did it give?
A: 0 of 6

Q: What about the survivor count [4] of the same compound?
A: 6 of 6

Q: Which survivor count (dose: 400.0 mg/kg/injection, schedule: Q04DX003 (ip), vehicle: acetone) does the source give for `C#CCCCCCC#CCCCCCC#CCCCCCC#C` here?
A: 3 of 6

Q: `c1ccc(C23c4ccccc4C2c2ccccc23)nc1` (stereo unspecified) was tested. Which survivor count (dose: 100.0 mg/kg/injection, schedule: Q01DX009 (ip), vehicle: gum acacia) did it give?
A: 0 of 6

Q: And the survivor count (dose: 200.0 mg/kg/injection, schedule: Q01DX009 (ip), vehicle: gum acacia)?
A: 0 of 6

Q: What about the survivor count (dose: 400.0 mg/kg/injection, schedule: Q01DX009 (ip), vehicle: gum acacia) of the same compound?
A: 0 of 6

Q: What does the source list for `CCN1/C(=C/C=C/c2oc3ccccc3[n+]2CC)Oc2ccccc21`?
A: survivor count (dose: 1.6 mg/kg/injection, schedule: Q01DX009 (ip), vehicle: saline): 0 of 6; survivor count (dose: 2.0 mg/kg/injection, schedule: Q01DX001 (ip), vehicle: saline): 1 of 4; survivor count (dose: 4.0 mg/kg/injection, schedule: Q01DX001 (ip), vehicle: saline): 1 of 4; survivor count (dose: 5.0 mg/kg/injection, schedule: Q01DX001 (ip), vehicle: saline): 0 of 4; survivor count (dose: 8.0 mg/kg/injection, schedule: Q01DX001 (ip), vehicle: saline): 0 of 4; survivor count (dose: 10.0 mg/kg/injection, schedule: Q01DX001 (ip), vehicle: saline): 0 of 4; survivor count (dose: 20.0 mg/kg/injection, schedule: Q01DX001 (ip), vehicle: saline): 0 of 4; survivor count (dose: 40.0 mg/kg/injection, schedule: Q01DX001 (ip), vehicle: saline): 0 of 4; survivor count (dose: 50.0 mg/kg/injection, schedule: Q01DX001 (ip), vehicle: saline): 0 of 4; survivor count (dose: 80.0 mg/kg/injection, schedule: Q01DX001 (ip), vehicle: saline): 0 of 4; survivor count (dose: 100.0 mg/kg/injection, schedule: Q01DX001 (ip), vehicle: saline): 0 of 4; survivor count (dose: 200.0 mg/kg/injection, schedule: Q01DX001 (ip), vehicle: saline): 0 of 4; survivor count (dose: 400.0 mg/kg/injection, schedule: Q01DX001 (ip), vehicle: saline): 0 of 4
